Measured values: patent EP1921115B1, “Use of 3-hydroxy-cyclohex-2-enone azo based dyes in optical layers” (Clariant Finance (BVI) Limited, priority 2006, dated 2008)

Test: Recording evaluation of optical disc with dye optical layer
Settings: laser 405 nm, NA 0.65, CLV 6.61 m/sec; for PRSNR / SbER: information recorded in adjacent tracks
Description: A definition and the measuring techniques of PRSNR are described in a book available from DVD Format Logo Licensing Co., Ltd. for example, Annex H of Version 0.9, PART 1 Physical Specifications, DVD Specifications for High Density Read-Only Disk.
A definition and the measuring techniques of SbER are described in a book available from DVD Format Logo Licensing Co., Ltd. for example, Annex H of Version 0.9, PART 1 Physical Specifications, DVD Specifications for High Density Read-Only Disk.
PRSNR and SbER are measured in a state in which information has been recorded in the adjacent tracks.
A definition and the measuring techniques for the light reflectivity (R) is described in a book available from DVD Format Logo Licensing Co., Ltd. for example, Annex D of Version 0.9, PART 1 Physical Specifications, DVD Specifications for High Density Read-Only Disk.
1.4% by weight of the compound of formula (1), prepared according to example 1, are dissolved in 2,2',3,3'-tetrafluoro-1-propanol and the solution is filtered through a Teflon filter of pore size 0.2 µm and applied by spin-coating at 1000 rpm to the surface of a 0.6 mm thick, grooved polycarbonate disc of 120 mm diameter. The excess solution is spun off by increasing the rotational speed. On evaporation of the solvent, the dye remains behind in the form of a uniform, amorphous solid layer, the optical layer. After drying the optical layer in a circulating-air oven at 70°C (10 min) in a vacuum coating apparatus, a 100 µm thick silver layer is then applied to the recording layer by atomization. Then a 6 µm thick protective layer of a UV curable photopolymer (650-020, DSM) is applied thereto by means of spincoating. Finally, a second substrate is provided to combine with the resin protection layer using an attachment layer. This completes the manufacturing of a high-density recordable optical disc, the optical data recording medium. Evaluation tests are performed using an optical disk evaluation device available from Pulse Tech Co., Ltd. The testing conditions are the following ones: • Numerical aperture (NA) of the optical head: 0.65 • Wavelength of a laser light for recording and reproduction: 405 nm • Constant linear velocity (CLV): 6.61 m/sec. • Track pitch: 400 nm • Wobble amplitude of the groove track: 14 nm • Groove depth: 90 nm.

Structure (SMILES): CCOC(=O)C1C(O)=C(N=Nc2ccc(C)cc2[N+](=O)[O-])C(=O)CC1(C)C (stereo not shown) [compound of formula (1)]
- Pw: 7.1 mW
- modulation: 0.49
- reflectivity: 21.36
- PRSNR: 26.1
- SbER: 7.50E-08

Structure (SMILES): CCOC(=O)C1C(O)=C(N=Nc2ccc(Cl)cc2[N+](=O)[O-])C(=O)CC1(C)C (stereo not shown) [compound of formula (3)]
- Pw: 7.3 mW
- modulation: 0.49
- reflectivity: 22.72
- PRSNR: 28.6
- SbER: 5.20E-08

Structure (SMILES): CCOC(=O)C1C(O)=C(N=Nc2ccc(S(C)(=O)=O)cc2[N+](=O)[O-])C(=O)CC1(C)C (stereo not shown) [compound of formula (5)]
- Pw: 7.3 mW
- modulation: 0.51
- reflectivity: 19.04
- PRSNR: 24
- SbER: 2.00E-07

Structure (SMILES): CCOC(=O)C1C(O)=C(N=Nc2ccc(OC)cc2[N+](=O)[O-])C(=O)CC1(C)C (stereo not shown) [compound of formula (6)]
- Pw: 8.2 mW
- modulation: 0.40
- reflectivity: 20.18
- PRSNR: 19.1
- SbER: 6.90E-06

Structure (SMILES): CCOC(=O)C1C(O)=C(N=Nc2ccc(C(F)(F)F)cc2[N+](=O)[O-])C(=O)CC1(C)C (stereo not shown) [compound of formula (7)]
- Pw: 8.4 mW
- modulation: 0.40
- reflectivity: 20.18
- PRSNR: 17.4
- SbER: 1.00E-05
